{"source": "the supplement of paper PMC8728848", "experiment_in_all_cases": "glycan array binding signal (z-score within array); higher = stronger binding", "conditions_in_all_cases": "glycan notation: IUPAC condensed, linker removed", "key": {"[1]": {"biological_target": "Gal(b1-2)Gal", "method_in_brief": "(§1)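 Columns mapping to the same glycan were averaged after glycan names were converted to IUPAC-condensed notation. The data come from 3228 arrays in the Consortium for Functional Glycomics database, limited to those with an available protein sequence. Binding is reported as a within-array Z-score averaged across arrays of one protein sequence and across linkers.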"}, "[2]": {"biological_target": "Gal(b1-3)Gal", "method_in_brief": "as §1"}, "[3]": {"biological_target": "Gal(b1-3)Gal(b1-4)GlcNAc", "method_in_brief": "as §1"}, "[4]": {"biological_target": "Gal(b1-3)GalNAc", "method_in_brief": "as §1"}, "[5]": {"biological_target": "Gal(b1-3)GalNAc(a1-3)[Fuc(a1-2)]Gal(b1-4)Glc", "method_in_brief": "as §1"}, "[6]": {"biological_target": "Gal(b1-3)GalNAc(a1-3)[Fuc(a1-2)]Gal(b1-4)GlcNAc", "method_in_brief": "as §1"}, "[7]": {"biological_target": "Gal(b1-3)GalNAc(b1-3)Gal", "method_in_brief": "as §1"}, "[8]": {"biological_target": "Gal(b1-3)GalNAc(b1-3)Gal(a1-4)Gal(b1-4)Glc", "method_in_brief": "as §1"}, "[9]": {"biological_target": "Gal(b1-3)GalNAc(b1-4)Gal(b1-4)Glc", "method_in_brief": "as §1"}, "[10]": {"biological_target": "Gal(b1-3)GalNAc(b1-4)[Neu5Ac(a2-3)]Gal(b1-4)Glc", "method_in_brief": "as §1"}, "[11]": {"biological_target": "Gal(b1-3)GlcNAc", "method_in_brief": "as §1"}, "[12]": {"biological_target": "Gal(b1-3)GlcNAc(a1-3)Gal(b1-4)GlcNAc", "method_in_brief": "as §1"}, "[13]": {"biological_target": "Gal(b1-3)GlcNAc(a1-6)Gal(b1-4)GlcNAc", "method_in_brief": "as §1"}, "[14]": {"biological_target": "Gal(b1-3)GlcNAc(b1-2)Man", "method_in_brief": "as §1"}, "[15]": {"biological_target": "Gal(b1-3)GlcNAc(b1-2)Man(a1-3)[Gal(b1-3)GlcNAc(b1-2)Man(a1-6)]Man(b1-4)GlcNAc(b1-4)GlcNAc", "method_in_brief": "as §1"}, "[16]": {"biological_target": "Gal(b1-3)GlcNAc(b1-2)Man(a1-3)[Gal(b1-3)GlcNAc(b1-2)Man(a1-6)]Man(b1-4)GlcNAc(b1-4)[Fuc(a1-6)]GlcNAc", "method_in_brief": "as §1"}, "[17]": {"biological_target": "Gal(b1-3)GlcNAc(b1-2)Man(a1-3)[GlcNAc(b1-4)][Gal(b1-3)GlcNAc(b1-2)Man(a1-6)]Man(b1-4)GlcNAc(b1-4)GlcNAc", "method_in_brief": "as §1"}, "[18]": {"biological_target": "Gal(b1-3)GlcNAc(b1-2)[Gal(b1-3)GlcNAc(b1-6)]Man(a1-6)[Gal(b1-3)GlcNAc(b1-2)Man(a1-3)]Man(b1-4)GlcNAc(b1-4)GlcNAc", "method_in_brief": "as §1"}, "[19]": {"biological_target": "Gal(b1-3)GlcNAc(b1-3)Gal(b1-3)GlcNAc", "method_in_brief": "as §1"}, "[20]": {"biological_target": "Gal(b1-3)GlcNAc(b1-3)Gal(b1-4)Glc", "method_in_brief": "as §1"}, "[21]": {"biological_target": "Gal(b1-3)GlcNAc(b1-3)Gal(b1-4)GlcNAc", "method_in_brief": "as §1"}, "[22]": {"biological_target": "Gal(b1-3)GlcNAc(b1-3)Gal(b1-4)GlcNAc(b1-2)Man(a1-3)[Gal(b1-3)GlcNAc(b1-3)Gal(b1-4)GlcNAc(b1-2)Man(a1-6)]Man(b1-4)GlcNAc(b1-4)GlcNAc", "method_in_brief": "as §1"}, "[23]": {"biological_target": "Gal(b1-3)GlcNAc(b1-3)Gal(b1-4)GlcNAc(b1-2)[Gal(b1-3)GlcNAc(b1-3)Gal(b1-4)GlcNAc(b1-6)]Man(a1-6)[Gal(b1-3)GlcNAc(b1-3)Gal(b1-4)GlcNAc(b1-2)Man(a1-3)]Man(b1-4)GlcNAc(b1-4)[Fuc(a1-6)]GlcNAc", "method_in_brief": "as §1"}, "[24]": {"biological_target": "Gal(b1-3)GlcNAc(b1-3)Gal(b1-4)GlcNAc(b1-3)Gal(b1-4)GlcNAc(b1-2)[Gal(b1-3)GlcNAc(b1-3)Gal(b1-4)GlcNAc(b1-3)Gal(b1-4)GlcNAc(b1-6)]Man(a1-6)[Gal(b1-3)GlcNAc(b1-3)Gal(b1-4)GlcNAc(b1-3)Gal(b1-4)GlcNAc(b1-2)Man(a1-3)]Man(b1-4)GlcNAc(b1-4)[Fuc(a1-6)]GlcNAc", "method_in_brief": "as §1"}, "[25]": {"biological_target": "Gal(b1-3)GlcNAc(b1-3)Gal(b1-4)GlcNAc(b1-6)[Gal(b1-3)GlcNAc(b1-3)]Gal(b1-4)Glc", "method_in_brief": "as §1"}, "[26]": {"biological_target": "Gal(b1-3)GlcNAc(b1-3)Gal(b1-4)[Fuc(a1-3)]GlcNAc(b1-6)[Gal(b1-3)GlcNAc(b1-3)]Gal(b1-4)Glc", "method_in_brief": "as §1"}, "[27]": {"biological_target": "Gal(b1-3)GlcNAc(b1-3)GalNAc", "method_in_brief": "as §1"}, "[28]": {"biological_target": "Gal(b1-3)GlcNAc(b1-6)Gal(b1-4)GlcNAc", "method_in_brief": "as §1"}, "[29]": {"biological_target": "Gal(b1-3)GlcNAc(b1-6)GalNAc", "method_in_brief": "as §1"}, "[30]": {"biological_target": "Gal(b1-3)GlcNAc(b1-6)[Gal(b1-3)]GalNAc", "method_in_brief": "as §1"}, "[31]": {"biological_target": "Gal(b1-3)GlcNAc6S", "method_in_brief": "as §1"}, "[32]": {"biological_target": "Gal(b1-3)[Fuc(a1-4)]GlcNAc", "method_in_brief": "as §1"}, "[33]": {"biological_target": "Gal(b1-3)[Fuc(a1-4)]GlcNAc(b1-2)Man", "method_in_brief": "as §1"}, "[34]": {"biological_target": "Gal(b1-3)[Fuc(a1-4)]GlcNAc(b1-2)Man(a1-3)[Gal(b1-3)[Fuc(a1-4)]GlcNAc(b1-2)Man(a1-6)]Man(b1-4)GlcNAc(b1-4)[Fuc(a1-6)]GlcNAc", "method_in_brief": "as §1"}, "[35]": {"biological_target": "Gal(b1-3)[Fuc(a1-4)]GlcNAc(b1-3)Gal(b1-3)[Fuc(a1-4)]GlcNAc", "method_in_brief": "as §1"}, "[36]": {"biological_target": "Gal(b1-3)[Fuc(a1-4)]GlcNAc(b1-3)Gal(b1-4)GlcNAc", "method_in_brief": "as §1"}, "[37]": {"biological_target": "Gal(b1-3)[Fuc(a1-4)]GlcNAc(b1-3)Gal(b1-4)[Fuc(a1-3)]GlcNAc", "method_in_brief": "as §1"}}, "note": "Some of the results follow.", "data": [{"binder": "Protein L(B1-B4) (Finegoldia magna), Q51912 (protein) KEETPETPETDSEEEVTIKANLIFANGSTQTAEFKGTFEKATSEAYAYADTLKKDNGEYTVDVADKGYTLNIKFAGKEKTPEEPKEEVTIKANLIYADGKTQTAEFKGTFEEATAEAYRYADALKKDNGEYTVDVADKGYTLNIKFAGKEKTPEEPKEEVTIKANLIYADGKTQTAEFKGTFEEATAEAYRYADLLAKENGKYTVDVADKGYTLNIKFAGKEKTPEEPKEEVTIKANLIYADGKTQTAEFKGTFAEATAEAYRYADLLAKENGKYTADLEDGGYTINIRFAG", "values": [{"measurement": "glycan array binding signal (z-score)", "setting": "[1]", "result": -0.466}, {"measurement": "glycan array binding signal (z-score)", "setting": "[2]", "result": -1.04}, {"measurement": "glycan array binding signal (z-score)", "setting": "[3]", "result": -0.353}, {"measurement": "glycan array binding signal (z-score)", "setting": "[4]", "result": -0.452}, {"measurement": "glycan array binding signal (z-score)", "setting": "[5]", "result": 0.326}, {"measurement": "glycan array binding signal (z-score)", "setting": "[6]", "result": -0.393}, {"measurement": "glycan array binding signal (z-score)", "setting": "[7]", "result": -0.68}, {"measurement": "glycan array binding signal (z-score)", "setting": "[8]", "result": 0.334}, {"measurement": "glycan array binding signal (z-score)", "setting": "[9]", "result": -0.763}, {"measurement": "glycan array binding signal (z-score)", "setting": "[10]", "result": -0.055}, {"measurement": "glycan array binding signal (z-score)", "setting": "[11]", "result": -0.372}, {"measurement": "glycan array binding signal (z-score)", "setting": "[12]", "result": -0.126}, {"measurement": "glycan array binding signal (z-score)", "setting": "[13]", "result": -0.886}, {"measurement": "glycan array binding signal (z-score)", "setting": "[14]", "result": 0.578}, {"measurement": "glycan array binding signal (z-score)", "setting": "[15]", "result": 1.35}, {"measurement": "glycan array binding signal (z-score)", "setting": "[16]", "result": 1.11}, {"measurement": "glycan array binding signal (z-score)", "setting": "[17]", "result": 1.19}, {"measurement": "glycan array binding signal (z-score)", "setting": "[18]", "result": 0.177}, {"measurement": "glycan array binding signal (z-score)", "setting": "[19]", "result": -0.89}, {"measurement": "glycan array binding signal (z-score)", "setting": "[20]", "result": -1.05}, {"measurement": "glycan array binding signal (z-score)", "setting": "[21]", "result": -0.637}, {"measurement": "glycan array binding signal (z-score)", "setting": "[22]", "result": 0.745}, {"measurement": "glycan array binding signal (z-score)", "setting": "[23]", "result": 0.991}, {"measurement": "glycan array binding signal (z-score)", "setting": "[24]", "result": 1.48}, {"measurement": "glycan array binding signal (z-score)", "setting": "[25]", "result": -0.192}, {"measurement": "glycan array binding signal (z-score)", "setting": "[26]", "result": -0.894}, {"measurement": "glycan array binding signal (z-score)", "setting": "[27]", "result": 0.468}, {"measurement": "glycan array binding signal (z-score)", "setting": "[28]", "result": -0.642}, {"measurement": "glycan array binding signal (z-score)", "setting": "[29]", "result": -0.4}, {"measurement": "glycan array binding signal (z-score)", "setting": "[30]", "result": 1.99}, {"measurement": "glycan array binding signal (z-score)", "setting": "[31]", "result": -0.474}, {"measurement": "glycan array binding signal (z-score)", "setting": "[32]", "result": -0.678}, {"measurement": "glycan array binding signal (z-score)", "setting": "[33]", "result": 1.5}, {"measurement": "glycan array binding signal (z-score)", "setting": "[34]", "result": 1.84}, {"measurement": "glycan array binding signal (z-score)", "setting": "[35]", "result": 0.166}, {"measurement": "glycan array binding signal (z-score)", "setting": "[36]", "result": -0.71}, {"measurement": "glycan array binding signal (z-score)", "setting": "[37]", "result": 0.214}]}]}
